In the supplement of paper PMC12067093, “Discovery and optimisation of a covalent ligand for TRIM25 and its application to targeted protein ubiquitination” (Chemical Science, 2025):
The other results are listed elsewhere or left out.

Chains of the proteins cited; added tags and fusions are not shown. Lines headed by an entry give the natural chain unless they say otherwise; changes in a name come on top.
UniProt O75643, whole entry, looked up: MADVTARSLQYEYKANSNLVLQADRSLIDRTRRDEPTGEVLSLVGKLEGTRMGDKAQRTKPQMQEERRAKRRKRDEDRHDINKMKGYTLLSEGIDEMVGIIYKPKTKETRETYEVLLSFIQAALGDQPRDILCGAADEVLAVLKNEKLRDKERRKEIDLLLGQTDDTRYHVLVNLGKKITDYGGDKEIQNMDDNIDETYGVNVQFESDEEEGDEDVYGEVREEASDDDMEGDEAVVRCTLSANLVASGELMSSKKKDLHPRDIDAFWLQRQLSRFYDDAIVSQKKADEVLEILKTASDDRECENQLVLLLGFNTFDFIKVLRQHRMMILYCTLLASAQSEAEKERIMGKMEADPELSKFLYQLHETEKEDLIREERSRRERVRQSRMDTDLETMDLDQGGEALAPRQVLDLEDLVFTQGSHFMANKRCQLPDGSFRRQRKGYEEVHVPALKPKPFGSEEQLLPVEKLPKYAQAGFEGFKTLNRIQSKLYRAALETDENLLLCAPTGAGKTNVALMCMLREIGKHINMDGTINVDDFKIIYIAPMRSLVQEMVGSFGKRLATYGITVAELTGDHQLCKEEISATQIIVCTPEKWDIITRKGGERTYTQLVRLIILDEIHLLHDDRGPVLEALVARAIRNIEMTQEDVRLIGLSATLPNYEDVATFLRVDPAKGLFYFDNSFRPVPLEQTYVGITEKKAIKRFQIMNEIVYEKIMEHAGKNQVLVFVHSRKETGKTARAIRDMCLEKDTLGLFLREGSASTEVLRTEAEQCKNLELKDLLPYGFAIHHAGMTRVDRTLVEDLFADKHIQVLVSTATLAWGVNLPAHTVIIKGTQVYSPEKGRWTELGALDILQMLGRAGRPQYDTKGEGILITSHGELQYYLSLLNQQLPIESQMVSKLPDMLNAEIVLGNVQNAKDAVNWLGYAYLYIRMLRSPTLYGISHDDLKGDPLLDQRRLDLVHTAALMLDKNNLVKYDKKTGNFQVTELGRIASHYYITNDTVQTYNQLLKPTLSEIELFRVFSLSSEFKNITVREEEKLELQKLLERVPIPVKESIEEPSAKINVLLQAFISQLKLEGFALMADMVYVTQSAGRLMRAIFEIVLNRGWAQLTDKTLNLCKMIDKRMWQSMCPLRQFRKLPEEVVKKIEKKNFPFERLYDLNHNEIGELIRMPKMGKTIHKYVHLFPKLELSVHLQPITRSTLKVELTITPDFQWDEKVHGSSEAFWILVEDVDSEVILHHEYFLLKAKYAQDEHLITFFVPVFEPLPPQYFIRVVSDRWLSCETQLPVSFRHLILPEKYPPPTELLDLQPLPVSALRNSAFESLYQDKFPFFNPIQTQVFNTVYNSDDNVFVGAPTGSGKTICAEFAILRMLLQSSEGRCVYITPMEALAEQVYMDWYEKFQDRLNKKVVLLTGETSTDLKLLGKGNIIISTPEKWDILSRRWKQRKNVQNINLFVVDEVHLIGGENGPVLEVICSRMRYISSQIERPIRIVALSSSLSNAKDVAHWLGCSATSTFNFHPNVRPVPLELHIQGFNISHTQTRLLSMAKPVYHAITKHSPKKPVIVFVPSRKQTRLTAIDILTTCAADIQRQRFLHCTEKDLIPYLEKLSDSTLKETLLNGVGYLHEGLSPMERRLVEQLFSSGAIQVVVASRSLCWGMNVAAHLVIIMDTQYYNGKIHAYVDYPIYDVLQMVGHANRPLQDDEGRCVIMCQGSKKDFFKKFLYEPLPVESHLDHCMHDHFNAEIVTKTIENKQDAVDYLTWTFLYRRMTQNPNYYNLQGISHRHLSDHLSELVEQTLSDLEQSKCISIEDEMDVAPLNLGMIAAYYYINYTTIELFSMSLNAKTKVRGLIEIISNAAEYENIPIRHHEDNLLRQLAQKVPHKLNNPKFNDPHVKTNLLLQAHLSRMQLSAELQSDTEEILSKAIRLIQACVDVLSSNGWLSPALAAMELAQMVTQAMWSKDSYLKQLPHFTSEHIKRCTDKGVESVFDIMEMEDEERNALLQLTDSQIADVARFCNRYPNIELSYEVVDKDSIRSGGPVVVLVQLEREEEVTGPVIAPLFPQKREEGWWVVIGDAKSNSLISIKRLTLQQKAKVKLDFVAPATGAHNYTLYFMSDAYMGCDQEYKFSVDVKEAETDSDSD
UniProt Q12824, whole entry, looked up: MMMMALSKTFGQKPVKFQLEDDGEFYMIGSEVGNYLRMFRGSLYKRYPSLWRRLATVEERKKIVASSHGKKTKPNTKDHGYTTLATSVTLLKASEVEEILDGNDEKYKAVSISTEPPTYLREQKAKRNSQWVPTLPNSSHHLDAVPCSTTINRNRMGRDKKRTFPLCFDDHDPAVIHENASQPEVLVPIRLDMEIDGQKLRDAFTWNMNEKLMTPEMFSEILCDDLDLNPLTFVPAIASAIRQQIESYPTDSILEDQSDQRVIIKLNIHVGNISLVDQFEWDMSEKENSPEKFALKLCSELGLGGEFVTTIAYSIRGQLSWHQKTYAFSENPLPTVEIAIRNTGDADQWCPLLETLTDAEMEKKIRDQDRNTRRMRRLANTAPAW
UniProt A6NHR9: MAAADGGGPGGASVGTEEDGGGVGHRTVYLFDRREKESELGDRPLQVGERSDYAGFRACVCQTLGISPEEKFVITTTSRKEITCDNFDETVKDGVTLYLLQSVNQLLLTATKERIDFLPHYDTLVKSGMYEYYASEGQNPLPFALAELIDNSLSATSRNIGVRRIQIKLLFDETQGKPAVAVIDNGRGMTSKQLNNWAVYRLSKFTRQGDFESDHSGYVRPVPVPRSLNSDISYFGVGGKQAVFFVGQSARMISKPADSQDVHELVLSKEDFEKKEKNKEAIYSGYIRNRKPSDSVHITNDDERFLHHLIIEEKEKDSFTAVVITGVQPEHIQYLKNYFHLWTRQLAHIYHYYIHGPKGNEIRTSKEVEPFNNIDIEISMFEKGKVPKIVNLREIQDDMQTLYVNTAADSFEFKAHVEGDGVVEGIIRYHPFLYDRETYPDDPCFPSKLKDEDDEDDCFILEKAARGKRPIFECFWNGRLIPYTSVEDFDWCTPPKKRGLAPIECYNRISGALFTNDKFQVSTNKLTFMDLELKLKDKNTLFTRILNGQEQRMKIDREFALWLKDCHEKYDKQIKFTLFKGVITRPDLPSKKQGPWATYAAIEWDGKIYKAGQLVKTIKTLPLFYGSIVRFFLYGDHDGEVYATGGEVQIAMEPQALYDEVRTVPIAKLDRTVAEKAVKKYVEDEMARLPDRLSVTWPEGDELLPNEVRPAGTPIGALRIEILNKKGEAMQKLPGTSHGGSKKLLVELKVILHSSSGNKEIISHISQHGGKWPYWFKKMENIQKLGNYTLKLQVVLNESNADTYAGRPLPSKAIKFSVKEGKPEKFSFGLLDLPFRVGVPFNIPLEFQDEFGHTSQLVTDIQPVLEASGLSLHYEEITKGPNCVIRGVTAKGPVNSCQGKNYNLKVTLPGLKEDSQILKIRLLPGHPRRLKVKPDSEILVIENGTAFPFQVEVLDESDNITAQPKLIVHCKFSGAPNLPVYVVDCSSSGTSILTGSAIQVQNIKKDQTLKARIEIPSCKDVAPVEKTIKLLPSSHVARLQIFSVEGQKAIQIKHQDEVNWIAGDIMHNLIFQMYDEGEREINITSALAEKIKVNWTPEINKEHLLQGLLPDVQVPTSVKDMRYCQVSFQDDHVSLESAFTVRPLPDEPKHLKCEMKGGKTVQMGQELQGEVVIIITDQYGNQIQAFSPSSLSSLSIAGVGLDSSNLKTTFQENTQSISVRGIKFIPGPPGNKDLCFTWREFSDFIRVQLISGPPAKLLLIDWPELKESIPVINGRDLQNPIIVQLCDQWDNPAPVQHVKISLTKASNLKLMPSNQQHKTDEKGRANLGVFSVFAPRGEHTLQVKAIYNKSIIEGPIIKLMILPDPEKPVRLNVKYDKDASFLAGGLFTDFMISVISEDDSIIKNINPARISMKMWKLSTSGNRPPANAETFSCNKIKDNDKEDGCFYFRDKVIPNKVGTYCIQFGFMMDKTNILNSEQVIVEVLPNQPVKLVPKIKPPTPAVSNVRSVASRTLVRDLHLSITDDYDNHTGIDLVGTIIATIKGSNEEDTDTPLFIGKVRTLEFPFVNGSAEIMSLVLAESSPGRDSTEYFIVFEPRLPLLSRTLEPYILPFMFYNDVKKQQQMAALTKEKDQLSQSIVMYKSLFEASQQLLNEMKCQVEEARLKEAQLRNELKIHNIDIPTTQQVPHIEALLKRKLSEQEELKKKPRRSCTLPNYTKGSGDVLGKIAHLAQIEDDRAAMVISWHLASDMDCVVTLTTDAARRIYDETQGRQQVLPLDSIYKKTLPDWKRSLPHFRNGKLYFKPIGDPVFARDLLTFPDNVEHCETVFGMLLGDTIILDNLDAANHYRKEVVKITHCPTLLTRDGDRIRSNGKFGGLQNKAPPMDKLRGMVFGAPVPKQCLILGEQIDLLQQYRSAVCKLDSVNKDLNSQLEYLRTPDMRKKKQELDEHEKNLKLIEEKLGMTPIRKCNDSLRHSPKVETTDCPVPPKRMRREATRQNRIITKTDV
UniProt O95391: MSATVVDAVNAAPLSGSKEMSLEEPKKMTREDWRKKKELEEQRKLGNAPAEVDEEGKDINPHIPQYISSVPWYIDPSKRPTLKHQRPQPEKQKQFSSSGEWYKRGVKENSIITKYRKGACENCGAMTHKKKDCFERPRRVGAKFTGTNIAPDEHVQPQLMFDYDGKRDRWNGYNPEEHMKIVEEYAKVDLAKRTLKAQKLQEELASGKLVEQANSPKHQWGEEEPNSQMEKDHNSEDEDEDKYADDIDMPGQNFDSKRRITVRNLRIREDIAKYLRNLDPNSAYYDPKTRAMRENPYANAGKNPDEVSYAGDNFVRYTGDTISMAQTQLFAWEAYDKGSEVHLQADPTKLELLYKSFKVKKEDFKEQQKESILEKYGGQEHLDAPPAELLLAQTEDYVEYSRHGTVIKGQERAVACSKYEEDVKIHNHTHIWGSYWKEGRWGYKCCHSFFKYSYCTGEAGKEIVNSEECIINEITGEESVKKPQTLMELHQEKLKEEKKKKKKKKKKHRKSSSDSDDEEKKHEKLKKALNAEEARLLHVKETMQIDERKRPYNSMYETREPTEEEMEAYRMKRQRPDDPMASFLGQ
UniProt P09234, whole entry, looked up: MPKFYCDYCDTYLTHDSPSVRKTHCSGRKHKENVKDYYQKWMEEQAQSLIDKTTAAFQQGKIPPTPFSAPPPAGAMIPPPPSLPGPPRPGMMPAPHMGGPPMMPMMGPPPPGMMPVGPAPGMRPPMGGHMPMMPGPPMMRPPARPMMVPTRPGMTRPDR
UniProt Q16637, whole entry, looked up: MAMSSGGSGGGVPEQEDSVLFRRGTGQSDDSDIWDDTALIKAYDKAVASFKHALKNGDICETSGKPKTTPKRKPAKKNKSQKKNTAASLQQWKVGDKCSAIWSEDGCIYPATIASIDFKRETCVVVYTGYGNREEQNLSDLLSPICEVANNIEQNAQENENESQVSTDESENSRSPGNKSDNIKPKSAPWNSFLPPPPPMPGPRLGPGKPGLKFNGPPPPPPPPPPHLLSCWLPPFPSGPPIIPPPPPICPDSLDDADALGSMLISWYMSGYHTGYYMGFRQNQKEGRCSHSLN
UniProt P62316, whole entry, looked up: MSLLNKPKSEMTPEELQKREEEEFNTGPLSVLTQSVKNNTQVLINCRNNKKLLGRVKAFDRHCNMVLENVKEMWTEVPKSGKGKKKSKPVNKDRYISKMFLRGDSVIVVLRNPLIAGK
UniProt Q7Z7L1: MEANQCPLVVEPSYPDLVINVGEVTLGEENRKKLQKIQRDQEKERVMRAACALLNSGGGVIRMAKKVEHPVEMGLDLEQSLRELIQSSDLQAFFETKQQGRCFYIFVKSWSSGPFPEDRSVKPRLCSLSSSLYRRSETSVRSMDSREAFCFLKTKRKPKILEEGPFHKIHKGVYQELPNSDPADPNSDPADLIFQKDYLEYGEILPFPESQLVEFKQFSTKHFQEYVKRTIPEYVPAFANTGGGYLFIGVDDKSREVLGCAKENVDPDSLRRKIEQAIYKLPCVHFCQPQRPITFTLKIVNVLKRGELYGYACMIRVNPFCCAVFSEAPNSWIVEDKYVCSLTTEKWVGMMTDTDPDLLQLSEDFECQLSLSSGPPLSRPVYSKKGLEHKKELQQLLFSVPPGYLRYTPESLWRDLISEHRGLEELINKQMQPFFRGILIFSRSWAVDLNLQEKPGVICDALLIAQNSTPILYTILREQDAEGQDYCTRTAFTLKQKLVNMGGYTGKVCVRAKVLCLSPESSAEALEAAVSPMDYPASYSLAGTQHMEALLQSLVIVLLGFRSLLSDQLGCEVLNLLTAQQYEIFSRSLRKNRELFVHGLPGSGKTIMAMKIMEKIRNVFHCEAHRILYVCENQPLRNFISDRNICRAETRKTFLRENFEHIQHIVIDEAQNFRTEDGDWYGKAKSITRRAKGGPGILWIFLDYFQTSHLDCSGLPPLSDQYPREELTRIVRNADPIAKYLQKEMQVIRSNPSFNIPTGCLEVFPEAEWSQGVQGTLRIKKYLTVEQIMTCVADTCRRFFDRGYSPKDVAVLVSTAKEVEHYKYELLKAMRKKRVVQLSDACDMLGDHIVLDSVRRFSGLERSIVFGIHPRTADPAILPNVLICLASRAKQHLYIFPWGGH

Compound: Cc1cc(ccc1-c1ccccc1)C(=O)N1CCCN(CC1)C(=O)CCl [compound 10]
Test: probe-labelled cysteine peptide fold change vs DMSO (competition) (log2 fold change); higher = less target engagement (more negative = stronger competition)
Settings: THP-1, incubation time: 4 h
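Also: competitive profiling in live THP-1 cells: cysteine peptides tagged with an iodoacetamide desthiobiotin (IA-DTB) probe, intensity after compound treatment relative to DMSO-treated cells.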

| Target | probe-labelled cysteine peptide fold change (10 µM) | probe-labelled cysteine peptide fold change (50 µM) |
| --- | --- | --- |
| SNRNP200_O75643_428_CQLPDGSFR (UniProt O75643) | -0.244 | -0.0328 |
| SNRNP200_O75643_1278_WLSCETQLPVSFR (UniProt O75643) | 0.171 | 0.334 |
| SLC35F6_Q8N357_36_WADNFMAEGCGGSK (UniProt Q8N357) | -0.213 | -0.248 |
| SLC39A14_Q15043_290_LQNGDLDHMIPQHCSSELDGK (UniProt Q15043) | -0.206 | -0.37 |
| SMARCB1_Q12824_350_NTGDADQWCPLLETLTDAEMEK (UniProt Q12824) | -0.108 | 0.0621 |
| SMCHD1_A6NHR9_1445_DNDKEDGCFYFR (UniProt A6NHR9) | -0.115 | 0.171 |
| SMC1A_Q14683_619_ALQYACGNALVCDNVEDARR (UniProt Q14683) | -0.0448 | 0.0252 |
| SND1_Q7KZF4_837_DIQNTQCLLNVEHLSAGCPHVTLQFADSK (UniProt Q7KZF4) | 0.17 | -0.228 |
| SLU7_O95391_455_YSYCTGEAGK (UniProt O95391) | -0.102 | 0.172 |
| SMARCAD1_Q9H4L7_741_IELCAMSEK (UniProt Q9H4L7) | 0.0113 | -0.00583 |
| SMS_P52788_337_LYCPVEFSK (UniProt P52788) | 0.0759 | 0.136 |
| SMCHD1_A6NHR9_1445_IKDNDKEDGCFYFR (UniProt A6NHR9) | -0.113 | -0.578 |
| SLFN13_Q68D06_631_ILYVCENQPLR (UniProt Q68D06) | 0.0297 | 0.0636 |
| SNRPC_P09234_25_THCSGR (UniProt P09234) | 0.23 | 0.238 |
| SLK_Q9H2G2_1212_MTGESECLNPSTQSR (UniProt Q9H2G2) | -0.142 | -0.43 |
| SMU1_Q2TAY7_416_NPEHFVVCNR (UniProt Q2TAY7) | 0.0652 | -0.0854 |
| SMURF2_Q9HAU4_393_QELSQQQPQAGHCR (UniProt Q9HAU4) | -0.000784 | 0.38 |
| SLC4A1AP_Q9BWU0_430_EAMIQCSLEACR (UniProt Q9BWU0) | 0.0766 | -0.743 |
| SMC1A_Q14683_613_ALQYACGNALVCDNVEDARR (UniProt Q14683) | -0.0363 | 0.0794 |
| SMC5_Q8IY18_726_LMEQDTCNLEEEERK (UniProt Q8IY18) | -0.184 | -0.208 |

| Target | probe-labelled cysteine peptide fold change (10 µM) | probe-labelled cysteine peptide fold change (50 µM) |
| --- | --- | --- |
| SNRNP200_O75643_1702+1706_CVIMCQGSK (UniProt O75643) | -0.122 | -0.188 |
| SMN2_Q16637_123_ETCVVVYTGYGNR (UniProt Q16637) | 0.186 | 0.429 |
| SLC44A1_Q8WWI5_159_SSVLCPK (UniProt Q8WWI5) | -0.162 | 0.0545 |
| SMARCA2_P51531_399_QLRQEVVACMR (UniProt P51531) | -0.0153 | -0.287 |
| SMC4_Q9NTJ3_110_RFSCIIGPNGSGK (UniProt Q9NTJ3) | -0.0701 | 0.0176 |
| SNRPD2_P62316_63_HCNMVLENVK (UniProt P62316) | 0.103 | -0.0621 |
| SLU7_O95391_445_CCHSFFK (UniProt O95391) | 0.00556 | 0.117 |
| SMCR8_Q8TEV9_644_DNSCEGFPAYELDPSHLLASR (UniProt Q8TEV9) | 0.0826 | 0.501 |
| SMN2_Q16637_98_CSAIWSEDGCIYPATIASIDFK (UniProt Q16637) | 0.0843 | 0.0664 |
| SMAD4_Q13485_401_CLSDHAVFVQSYYLDR (UniProt Q13485) | 0.224 | 0.0111 |
| SLFN11_Q7Z7L1_51_AACALLNSGGGVIR (UniProt Q7Z7L1) | 0.00429 | -0.183 |
| SMARCA5_O60264_1001_CNTLITLIERENMELEEK (UniProt O60264) | 0.24 | -0.297 |
| SMARCC1_Q92922_761_VDPTYGLESSCIAGTGPDEPEK (UniProt Q92922) | 0.0416 | 0.51 |
| SMAP2_Q8WU79_196_STAPVMDLLGLDAPVACSIANSK (UniProt Q8WU79) | -0.152 | -0.384 |
| SMC6_Q96SB8_1013_CLDEFDVYMDMVNRR (UniProt Q96SB8) | 0.153 | 0.134 |
| SNRNP200_O75643_1359_TICAEFAILR (UniProt O75643) | 0.0052 | 0.0694 |
| SLMAP_Q14BN4_673_EWNALETECHSLK (UniProt Q14BN4) | 0.314 | 0.539 |
| SNRNP200_O75643_576_LATYGITVAELTGDHQLCK (UniProt O75643) | 0.0912 | 0.231 |
| SMC2_O95347_585_CIAPETLR (UniProt O95347) | -0.0829 | -0.00562 |

Single records, from the list above.
SLFN11_Q7Z7L1_51_AACALLNSGGGVIR (UniProt Q7Z7L1) as listed: probe-labelled cysteine peptide fold change (10 µM) = 0.00429; probe-labelled cysteine peptide fold change (50 µM) = -0.183
SMN2_Q16637_123_ETCVVVYTGYGNR (UniProt Q16637) as listed: probe-labelled cysteine peptide fold change (10 µM) = 0.186; probe-labelled cysteine peptide fold change (50 µM) = 0.429
